Data published in patent publication US20050049403A1.
These are yes or no findings as the source states them, for the method shown. For some of these results: Binding calls can cover weak binding; strength is not graded here. One block for each binder: values may come before it.

The chains behind the UniProt entries cited, without tags or fusion partners. Where a name states a change or a piece, a line headed by the entry shows the natural chain unless it says otherwise.
UniProt P61812: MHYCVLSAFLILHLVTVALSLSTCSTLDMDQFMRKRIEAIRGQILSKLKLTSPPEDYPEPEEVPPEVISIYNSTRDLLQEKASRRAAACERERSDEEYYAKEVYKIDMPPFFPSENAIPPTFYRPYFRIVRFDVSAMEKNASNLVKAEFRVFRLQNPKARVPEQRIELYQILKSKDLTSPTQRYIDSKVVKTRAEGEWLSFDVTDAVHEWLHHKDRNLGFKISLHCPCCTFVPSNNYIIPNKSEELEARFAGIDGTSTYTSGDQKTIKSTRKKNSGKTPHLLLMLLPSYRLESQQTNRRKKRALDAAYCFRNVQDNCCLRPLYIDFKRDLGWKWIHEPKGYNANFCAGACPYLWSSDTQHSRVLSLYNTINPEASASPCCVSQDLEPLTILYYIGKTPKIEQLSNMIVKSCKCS

Key:
[1] = biological target: recombinant human TGFβ2 (human) (UniProt P61812); assay: BIACore, scFv injected over immobilised antigen
[2] = biological target: recombinant human TGFβ2 (human) (UniProt P61812); assay: ELISA, TGFβ coated at 0.2 µg/ml
[3] = biological target: recombinant human TGFβ2 (human) (UniProt P61812); assay: competition ELISA on plate-coated TGFβ2 (200 ng/ml), 4 µg 6B1 IgG4 in 400 µl, detection with anti-human IgG alkaline phosphatase conjugate, absorbance at 405 nm; competitor: active TGFβ2 in acid activated PC3 conditioned media
[4] = biological target: keyhole limpet haemocyanin (keyhole limpet); assay: ELISA, antigen coated at 10 µg/ml, anti-human Fc alkaline phosphatase conjugate, OD405 nm [a]
[5] = biological target: interleukin-1; assay: as above
[6] = biological target: glyceraldehyde phosphate dehydrogenase; assay: as above
[7] = biological target: cytochrome c; assay: as above
[8] = biological target: tumour necrosis factor α (TNFα); assay: as above
[9] = biological target: keyhole limpet haemocyanin (keyhole limpet); assay: ELISA, antigen coated at 10 µg/ml
[10] = biological target: interleukin-1; assay: ELISA, antigen coated at 10 µg/ml
[11] = biological target: glyceraldehyde phosphate dehydrogenase; assay: ELISA, antigen coated at 10 µg/ml
[12] = biological target: cytochrome c; assay: ELISA, antigen coated at 10 µg/ml
[13] = biological target: tumour necrosis factor α (TNFα); assay: ELISA, antigen coated at 10 µg/ml
[14] = biological target: recombinant human TGFβ2 (human) (UniProt P61812); assay: BIACore, antigen on the chip
[15] = biological target: recombinant human TGFβ2 (human) (UniProt P61812); assay: ELISA, TGFβ2 coated at 0.2 µg/ml, bound IgG detected with mouse anti-human Fc alkaline phosphatase conjugate and PNPP, OD405 nm [a]
[16] = biological target: recombinant human TGFβ2 (human) (UniProt P61812); assay: competition ELISA on coated TGFβ2 after pre-incubation with acid activated PC-3 conditioned media
[17] = biological target: recombinant human TGFβ2 (human) (UniProt P61812); assay: ELISA, TGFβ2 coated at 0.2 µg/ml, bound IgG detected with mouse anti-human Fc alkaline phosphatase conjugate and PNPP, OD405 nm [b]
[18] = biological target: keyhole limpet haemocyanin (keyhole limpet); assay: ELISA, antigen coated at 10 µg/ml, anti-human Fc alkaline phosphatase conjugate, OD405 nm [b]
[19] = biological target: interleukin-1; assay: as above
[20] = biological target: glyceraldehyde phosphate dehydrogenase; assay: as above
[21] = biological target: cytochrome c; assay: as above
[22] = biological target: tumour necrosis factor α (TNFα); assay: as above
[23] = biological target: recombinant human TGFβ2 (human) (UniProt P61812); assay: phage and soluble ELISA
[24] = biological target: recombinant human TGFβ2 (human) (UniProt P61812); assay: phage and soluble ELISA on coated TGFβ2

- binding [1]: binds
B1: 31G9 scFv (scFv)
scFv: QVQLVQSGGGVVQPGRSLRLSCAASGFTFSSYGMHWVRQAPGKGLEWVAVISYDGSIKYYADSVKGRFTISRDNSKNTLYLQMNSLRAEDTAVYYCARTGEYSGYDTSGVELWGQGTTVTVSSGGGGSGGGGSGGGGSDIVMTQSPSTLSASVGDRVTITCRASQGISSWLAWYQQKPGRAPKVLIYKASTLESGVPSRFSGSGSGTDFTLTISSLQPEDFATYYCQQSYSTPWTFGQGTKLEIKR

- binding [2]: binds
- binding [3]: binds
- binding [4]: no binding
- binding [5]: no binding
- binding [6]: no binding
- binding [7]: no binding
- binding [9]: no binding
- binding [10]: no binding
- binding [11]: no binding
- binding [12]: no binding
- binding [14]: binds
- binding [15]: binds
- binding [16]: binds
B2: 6B1 IgG4 (antibody, V domains shown)
VH: EVQLVESGGGVVQPGRSLRLSCAASGFTFSSYGMHWVRQAPGKGLEWVAVIWYDGSNKYYADSVKGRFTISRDNSKNTLYLQMDSLRAEDTAVYYCGRTLESSLWGQGTLVTVSS
VL: SSELTQDPAVSVALGQTVRITCQGDSLRSYYASWYQQKPGQAPVLVIYGKNNRPSGIPDRFSGSSSGNTASLTITGAQAEDEADYYCNSRDSSSTHRGVFGGGTKLTVLG
- binding [8]: no binding
- binding [13]: no binding

- binding [14]: binds
B3: 6H1 IgG4 (antibody, V domains shown)
VH: EVQLVESGGGVVQPGRSLRLSCAASGFTFSSYGMHWVRQAPGKGLEWVAVIWYDGSNKYYADSVKGRFTISRDNSKNTLYLQMDSLRAEDTAVYYCGRTLESSLWGQGTLVTVSS
VL: DVVMTQSPSSLSASVGDRVTITCRASQGISNYLAWYQQKPGKAPKLLIYKASTLESGVPSRFSGSGSGTEFTLTISSLQPEDFATYYCQQSYSTPRTFGQGTKVDIKR

- binding [2]: binds
- binding [17]: binds
- binding [9]: no binding
- binding [10]: no binding
- binding [11]: no binding
- binding [12]: no binding
- binding [18]: no binding
- binding [19]: no binding
- binding [20]: no binding
- binding [21]: no binding
- binding [14]: binds
B4: 6A5 IgG4 (antibody, V domains shown)
VH: EVQLVESGGGVVQPGRSLRLSCAASGFTFSSYGMHWVRQAPGKGLEWVAVIWYDGSNKYYADSVKGRFTISRDNSKNTLYLQMDSLRAEDTAVYYCGRTLESSLWGQGTLVTVSS
VL: SSELTQDPAVSVALGQTVRITCQGDSLRSYYASWYQQKPGQAPVLVIYGKNNRPSGIPDRFAGSNSGNTASLTITGAQAEDEADYYCSSRDSSGNHVVFGGGTKLTVLG
- binding [13]: no binding
- binding [22]: no binding

- binding [14]: binds
B5: 27C1/10A6 IgG4 (antibody, V domains shown)
VH: QVQLVESGGGVVQPGRSLRLSCAASGLTFSSYDMHWVRQPPAKGLEWVAVISYDGSSKYYADSVKGRFTISRDNSKNTLYLQMNSLRAEDTAVYYCARTGEYSGYDTSGVELWGQGTTVTVSS
VL: HVILTQDPAVSVALGQTVRITCQGDSLKSYYASWYQQKPGQAPVLVIYGENSRPSGIPDRFSGSSSGNTASLTITGAQAEDEADYYCNSRDSSGTHLEVFGGGTKLTVLG

- binding [23]: binds
B6: 11E6 scFv (scFv)
scFv: EIQLVESGGGVVQPGRSLRLSCAASGFTFSSYAMHWVRQAPAKGLEWVAVISYDGSNKYYADSVKGRFTISRDNSKNTLYLQMNSLRAEDTAVYYCARAGLETTWGQGTLVTVSSSGGGGGSGGGGSGGGGSEVVLTQSPSSLSASVGDRVTITCRASQGIGDDLGWYQQKPGKAPILLIYGTSTLQSGVPSRFSGSGSGTDFTLTINSLQPEDFATYYCLQDSNYPLTFGGGTRLEIKR

- binding [23]: binds
B7: 6H1 scFv (scFv)
scFv: EVQLVESGGGVVQPGRSLRLSCAASGFTFSSYGMHWVRQAPGKGLEWVAVIWYDGSNKYYADSVKGRFTISRDNSKNTLYLQMDSLRAEDTAVYYCGRTLESSLWGQGTLVTVSSGGGGSGGGGSGGGGSDVVMTQSPSSLSASVGDRVTITCRASQGISNYLAWYQQKPGKAPKLLIYKASTLESGVPSRFSGSGSGTEFTLTISSLQPEDFATYYCQQSYSTPRTFGQGTKVDIKR

- binding [23]: binds
B8: 6A5 scFv (scFv)
scFv: EVQLVESGGGVVQPGRSLRLSCAASGFTFSSYGMHWVRQAPGKGLEWVAVIWYDGSNKYYADSVKGRFTISRDNSKNTLYLQMDSLRAEDTAVYYCGRTLESSLWGQGTLVTVSSGGGGSGGGGSGGGGSSSELTQDPAVSVALGQTVRITCQGDSLRSYYASWYQQKPGQAPVLVIYGKNNRPSGIPDRFAGSNSGNTASLTITGAQAEDEADYYCSSRDSSGNHVVFGGGTKLTVLG

- binding [24]: binds
B9: Gold-11 scFv (scFv)
scFv: QVTLKESGGSVVQPGRSLRLSCAASGFTFSSYGMHWVRQAPGKGLEWVAVISYDGSNKYYADSVKGRFTISRDNSKNTQYLQMNSLRAEDTAEYYCARTGEYSGHASTGENVWGRGTLVTVSSGGGGSGGGGSGGGGSSYVLTHPPSVSGTPGQRVTISCSGGRSNIGSNTVKWYQQLPGTPPKLLIYGNDQRPSGIPDRFSGSKSGTSASLAITGVQAEDEADYYCQSYDSSLRGSRVFGTGTKVTVLG

- binding [23]: binds
B10: 14F12 scFv (scFv)
scFv: EIQLVESGGGVVQPGRSLRLSCAASGFTFSSYAMHWVRQAPAKGLEWVAVISYDGSNKYYADSVKGRFTISRDNSKNTLYLQMNSLRAEDTAVYYCARAGLETTWGQGTLVTVSSSGGGGGSGGGGSGGGGSSSELTQDPAVSVALGQTVRITCQGDSLRNYYANWYQQKPGQAPVLVIYGKNNRPSGIPDRFSGSSSGNTASLTITGARAEDEGVYYCNSRDSSGAVFGGGTKLTVLG

- binding [23]: binds
B11: 6B1 scFv (scFv)
scFv: EVQLVESGGGVVQPGRSLRLSCAASGFTFSSYGMHWVRQAPGKGLEWVAVIWYDGSNKYYADSVKGRFTISRDNSKNTLYLQMDSLRAEDTAVYYCGRTLESSLWGQGTLVTVSSGGGGSGGGGSGGGGSSSELTQDPAVSVALGQTVRITCQGDSLRSYYASWYQQKPGQAPVLVIYGKNNRPSGIPDRFSGSSSGNTASLTITGAQAEDEADYYCNSRDSSSTHRGVFGGGTKLTVLG
